Laboratory results reported in patent US20130053310A1 (NOVO NORDISK A/S, priority 2010, published 2013).
At least one read-out could not be matched to a standard name with certainty. Peptide text beside a SMILES is read from it.

Test: Assay (II) ThT fibrillation assay for physical stability
Type: physicochemical
Conditions: peptide concentration in solution after ThT assay vs initial sample; pH 4.0, 250 μM, 45 hours at 37° C., 960 rpm
Source text: This has traditionally been measured by visual inspection of the sample. However, that kind of measurement is very subjective and depending on the observer. Therefore, the application of a small molecule indicator probe is much more advantageous.
Here, F is the ThT fluorescence at the time t. The constant t0 is the time needed to reach 50% of maximum fluorescence.
Few of those intermediates nucleate to form a template onto which further intermediates may assembly and the fibrillation proceeds. The lag-time corresponds to the interval in which the critical mass of nucleus is built up and the apparent rate constant is the rate with which the fibril itself is formed.
Samples were prepared freshly before each assay. […] The pH of the sample was adjusted to the desired value using appropriate amounts of concentrated NaOH and HCl. Thioflavin T was added to the samples from a stock solution in H2O to a final concentration of 1 μM.
The plate was sealed with Scotch Pad (Qiagen).
Each run was initiated by incubating the plate at the assay temperature for 10 min. The plate was measured every 20 minutes for a desired period of time. Between each measurement, the plate was shaken and heated as described.
The supernatant was filtered through a 0.22 μm filter and an aliquot was transferred to a HPLC vial.
The measurement points were saved in Microsoft Excel format for further processing and curve drawing and fitting was performed using GraphPad Prism.
The data set may be fitted to Eq. (1).
In the case of `CC(C)C[C@H](NC(=O)[C@H](Cc1ccc(O)cc1)NC(=O)[C@H](CCCCN)NC(=O)[C@H](CO)NC(=O)[C@H](Cc1ccc(O)cc1)NC(=O)[C@H](CC(=O)O)NC(=O)[C@H](CO)NC(=O)[C@@H](NC(=O)[C@H](Cc1ccccc1)NC(=O)[C@@H](NC(=O)CNC(=O)[C@H](CCC(N)=O)NC(=O)[C@H](CO)NC(=O)[C@@H](N)Cc1c[nH]cn1)[C@@H](C)O)[C@@H](C)O)C(=O)N[C@@H](CC(=O)O)C(=O)N[C@@H](CO)C(=O)N[C@@H](CCCNC(=N)N)C(=O)N[C@@H](CCCNC(=N)N)C(=O)N[C@@H](C)C(=O)N[C@@H](CCC(N)=O)C(=O)N[C@@H](CC(=O)O)C(=O)N[C@@H](Cc1ccccc1)C(=O)N[C@H](C(=O)N[C@@H](CCC(N)=O)C(=O)N[C@@H](CCCNC(=N)N)C(=O)N[C@@H](CC(C)C)C(=O)N[C@@H](CC(C)C)C(=O)N[C@@H](CC(N)=O)C(=O)N[C@H](C(=O)O)[C@@H](C)O)C(C)C` [Example 5, [Arg^25, Leu^27]-Glucagon], the “Assay (II) (pH 4.0) Recovery (%)” value is reported as 96%. For `CC(C)C[C@H](NC(=O)[C@H](Cc1ccc(O)cc1)NC(=O)[C@H](CCCCN)NC(=O)[C@H](CO)NC(=O)[C@H](Cc1ccc(O)cc1)NC(=O)[C@H](CC(=O)O)NC(=O)[C@H](CO)NC(=O)[C@@H](NC(=O)[C@H](Cc1ccccc1)NC(=O)[C@@H](NC(=O)CNC(=O)[C@H](CCC(N)=O)NC(=O)[C@H](CO)NC(=O)[C@@H](N)Cc1c[nH]cn1)[C@@H](C)O)[C@@H](C)O)C(=O)N[C@@H](CC(=O)O)C(=O)N[C@@H](CO)C(=O)N[C@@H](CCCNC(=N)N)C(=O)N[C@@H](CCCNC(=N)N)C(=O)N[C@@H](C)C(=O)N[C@@H](CCC(N)=O)C(=O)N[C@@H](CCC(=O)O)C(=O)N[C@@H](Cc1ccccc1)C(=O)N[C@H](C(=O)N[C@@H](CCC(N)=O)C(=O)N[C@@H](CCCNC(=N)N)C(=O)N[C@@H](CC(C)C)C(=O)N[C@@H](CC(C)C)C(=O)N[C@@H](CC(N)=O)C(=O)N[C@H](C(=O)O)[C@@H](C)O)C(C)C` [Example 1, [Glu^21, Arg^25, Leu^27]Glucagon], the “Assay (II) (pH 4.0) Recovery (%)” value was 100%. In the case of `CC(C)C[C@H](NC(=O)[C@H](Cc1ccc(O)cc1)NC(=O)[C@H](CCCCN)NC(=O)[C@H](CO)NC(=O)[C@H](Cc1ccc(O)cc1)NC(=O)[C@H](CC(=O)O)NC(=O)[C@H](CO)NC(=O)[C@@H](NC(=O)[C@H](Cc1ccccc1)NC(=O)[C@@H](NC(=O)CNC(=O)[C@H](CCC(N)=O)NC(=O)[C@H](CO)NC(=O)[C@@H](N)Cc1c[nH]cn1)[C@@H](C)O)[C@@H](C)O)C(=O)N[C@@H](CCC(=O)O)C(=O)N[C@@H](CO)C(=O)N[C@@H](CCCNC(=N)N)C(=O)N[C@@H](CCCNC(=N)N)C(=O)N[C@@H](C)C(=O)N[C@@H](CCC(N)=O)C(=O)N[C@@H](CCC(=O)O)C(=O)N[C@@H](Cc1ccccc1)C(=O)N[C@H](C(=O)N[C@@H](CCC(N)=O)C(=O)N[C@@H](CCCNC(=N)N)C(=O)N[C@@H](CC(C)C)C(=O)N[C@@H](CC(C)C)C(=O)N[C@@H](CC(N)=O)C(=O)N[C@H](C(=O)O)[C@@H](C)O)C(C)C` [Example 10, [Glu^15, Glu^21, Arg^25, Leu^27]-Glucagon] (H-HSQGTFTSDYSKYLESRRAQEFVQRLLNT-OH), the “Assay (II) (pH 4.0) Recovery (%)” value is reported as 100%. For `CC(C)C[C@H](NC(=O)[C@H](Cc1ccc(O)cc1)NC(=O)[C@H](CCCCN)NC(=O)[C@H](CO)NC(=O)[C@H](Cc1ccc(O)cc1)NC(=O)[C@H](CC(=O)O)NC(=O)[C@H](CO)NC(=O)[C@@H](NC(=O)[C@H](Cc1ccccc1)NC(=O)[C@@H](NC(=O)CNC(=O)[C@H](CCC(N)=O)NC(=O)[C@H](CO)NC(=O)[C@@H](N)Cc1c[nH]cn1)[C@@H](C)O)[C@@H](C)O)C(=O)N[C@@H](CC(=O)O)C(=O)N[C@@H](CO)C(=O)N[C@@H](CCCNC(=N)N)C(=O)N[C@@H](CCCNC(=N)N)C(=O)N[C@@H](C)C(=O)N[C@@H](CCC(N)=O)C(=O)N[C@@H](CC(=O)O)C(=O)N[C@@H](Cc1ccccc1)C(=O)N[C@H](C(=O)N[C@@H](CCC(N)=O)C(=O)N[C@@H](CCCCN)C(=O)N[C@@H](CC(C)C)C(=O)N[C@@H](CC(C)C)C(=O)N[C@@H](CC(N)=O)C(=O)N[C@H](C(=O)O)[C@@H](C)O)C(C)C` [Example 8, [Lys^25, Leu^27]-Glucagon], the “Assay (II) (pH 4.0) Recovery (%)” value was 100%. With `CC(C)C[C@H](NC(=O)[C@H](Cc1ccc(O)cc1)NC(=O)[C@H](CCCCN)NC(=O)[C@H](CO)NC(=O)[C@H](Cc1ccc(O)cc1)NC(=O)[C@H](CC(=O)O)NC(=O)[C@H](CO)NC(=O)[C@@H](NC(=O)[C@H](Cc1ccccc1)NC(=O)[C@@H](NC(=O)CNC(=O)[C@H](CCC(N)=O)NC(=O)[C@H](CO)NC(=O)[C@@H](N)Cc1c[nH]cn1)[C@@H](C)O)[C@@H](C)O)C(=O)N[C@@H](CC(=O)O)C(=O)N[C@@H](CO)C(=O)N[C@@H](CCCNC(=N)N)C(=O)N[C@@H](CCCNC(=N)N)C(=O)N[C@@H](C)C(=O)N[C@@H](CCC(N)=O)C(=O)N[C@@H](CC(=O)O)C(=O)N[C@@H](Cc1ccccc1)C(=O)N[C@H](C(=O)N[C@@H](CCC(N)=O)C(=O)N[C@@H](Cc1c[nH]cn1)C(=O)N[C@@H](CC(C)C)C(=O)N[C@@H](CC(C)C)C(=O)N[C@@H](CC(N)=O)C(=O)N[C@H](C(=O)O)[C@@H](C)O)C(C)C` [Example 7, [His^25, Leu^27]-Glucagon] the “Assay (II) (pH 4.0) Recovery (%)” value was 100%. In the case of `CC(C)C[C@H](NC(=O)[C@H](Cc1ccc(O)cc1)NC(=O)[C@H](CCCCN)NC(=O)[C@H](CO)NC(=O)[C@H](Cc1ccc(O)cc1)NC(=O)[C@H](CC(=O)O)NC(=O)[C@H](CO)NC(=O)[C@@H](NC(=O)[C@H](Cc1ccccc1)NC(=O)[C@@H](NC(=O)CNC(=O)[C@H](CCC(N)=O)NC(=O)[C@H](CO)NC(=O)[C@@H](N)Cc1c[nH]cn1)[C@@H](C)O)[C@@H](C)O)C(=O)N[C@@H](CC(=O)O)C(=O)N[C@@H](CO)C(=O)N[C@@H](CCCNC(=N)N)C(=O)N[C@@H](CCCNC(=N)N)C(=O)N[C@@H](C)C(=O)N[C@@H](CCC(N)=O)C(=O)N[C@@H](CC(=O)O)C(=O)N[C@@H](Cc1ccccc1)C(=O)N[C@H](C(=O)N[C@@H](CCC(N)=O)C(=O)N[C@@H](CCCNC(=N)N)C(=O)N[C@@H](CC(C)C)C(=O)N[C@@H](CC(C)C)C(=O)N[C@@H](CCC(=O)O)C(=O)N[C@H](C(=O)O)[C@@H](C)O)C(C)C` [Example 11, [Arg^25, Leu^27, Glu^28]-Glucagon], the “Assay (II) (pH 4.0) Recovery (%)” value is reported as 100%. In the case of `CC(C)C[C@H](NC(=O)[C@H](Cc1ccc(O)cc1)NC(=O)[C@H](CCCCN)NC(=O)[C@H](CO)NC(=O)[C@H](Cc1ccc(O)cc1)NC(=O)[C@H](CC(=O)O)NC(=O)[C@H](CO)NC(=O)[C@@H](NC(=O)[C@H](Cc1ccccc1)NC(=O)[C@@H](NC(=O)CNC(=O)[C@H](CCC(N)=O)NC(=O)[C@H](CO)NC(=O)[C@@H](N)Cc1c[nH]cn1)[C@@H](C)O)[C@@H](C)O)C(=O)N[C@@H](CC(=O)O)C(=O)N[C@@H](CO)C(=O)N[C@@H](CCCNC(=N)N)C(=O)N[C@@H](CCCNC(=N)N)C(=O)N[C@@H](C)C(=O)N[C@@H](CCC(N)=O)C(=O)N[C@@H](CCC(=O)O)C(=O)N[C@@H](Cc1ccccc1)C(=O)N[C@H](C(=O)N[C@@H](CCC(N)=O)C(=O)N[C@@H](CCCNC(=N)N)C(=O)N[C@@H](CC(C)C)C(=O)N[C@@H](CC(C)C)C(=O)N[C@@H](CO)C(=O)N[C@H](C(=O)O)[C@@H](C)O)C(C)C` [Example 6, [Glu^21, Arg^25, Leu^27, Ser^28]-Glucagon], the “Assay (II) (pH 4.0) Recovery (%)” value is reported as 100%. In the case of `CC(C)C[C@H](NC(=O)[C@H](Cc1ccc(O)cc1)NC(=O)[C@H](CCCCN)NC(=O)[C@H](CO)NC(=O)[C@H](Cc1ccc(O)cc1)NC(=O)[C@H](CC(=O)O)NC(=O)[C@H](CO)NC(=O)[C@@H](NC(=O)[C@H](Cc1ccccc1)NC(=O)[C@@H](NC(=O)CNC(=O)[C@H](CCC(N)=O)NC(=O)[C@H](CO)NC(=O)[C@@H](N)Cc1c[nH]cn1)[C@@H](C)O)[C@@H](C)O)C(=O)N[C@@H](CC(=O)O)C(=O)N[C@@H](CO)C(=O)N[C@@H](CCCNC(=N)N)C(=O)N[C@@H](CCCNC(=N)N)C(=O)N[C@@H](C)C(=O)N[C@@H](CCC(N)=O)C(=O)N[C@@H](CCC(=O)O)C(=O)N[C@@H](Cc1ccccc1)C(=O)N[C@H](C(=O)N[C@@H](CCC(N)=O)C(=O)N[C@@H](CCCCN)C(=O)N[C@@H](CC(C)C)C(=O)N[C@@H](CC(C)C)C(=O)N[C@@H](CC(N)=O)C(=O)N[C@H](C(=O)O)[C@@H](C)O)C(C)C` [Example 9, [Glu^21, Lys^25, Leu^27]-Glucagon], the “Assay (II) (pH 4.0) Recovery (%)” value is reported as 100%.
